Some of the results follow.
What was measured:
Experiment in all cases: log2 fold change, soluble protein after heating vs DMSO (PISA); higher = thermal stabilisation; K562 lysate, 10 uM; active = over 0.2 and 3.5 SD of the protein, either way, in both replicates (recomputed)
Tubastatin A = compound: CN1CCc2c(c3ccccc3n2Cc2ccc(C(=O)NO)cc2)C1 [Tubastatin A]
Procedure, shortened: (§1)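 K562 pellets were dounce-homogenised in PBS pH 7.4 containing 1 mM MgCl2, and the crude extract, at 1 mg/mL protein, was exposed to 10 μM compound for 30 min. Aliquots were heated for 3 min across 48°C-58°C, pooled, brought to 0.5% NP-40 at 4°C and spun at 21,000xg for 90 min, with the supernatant taken as soluble protein. TMTpro 16plex LC-MS/MS with equalised channel sums quantified that protein. Values are log-two fold changes in thermal stability relative to solvent controls, taken from duplicates.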

Protein sequences, listed by entry. Tags and fused reporters are not part of them. Lines headed by an entry give the natural chain unless they say otherwise; changes in a name come on top.
UniProt Q05932: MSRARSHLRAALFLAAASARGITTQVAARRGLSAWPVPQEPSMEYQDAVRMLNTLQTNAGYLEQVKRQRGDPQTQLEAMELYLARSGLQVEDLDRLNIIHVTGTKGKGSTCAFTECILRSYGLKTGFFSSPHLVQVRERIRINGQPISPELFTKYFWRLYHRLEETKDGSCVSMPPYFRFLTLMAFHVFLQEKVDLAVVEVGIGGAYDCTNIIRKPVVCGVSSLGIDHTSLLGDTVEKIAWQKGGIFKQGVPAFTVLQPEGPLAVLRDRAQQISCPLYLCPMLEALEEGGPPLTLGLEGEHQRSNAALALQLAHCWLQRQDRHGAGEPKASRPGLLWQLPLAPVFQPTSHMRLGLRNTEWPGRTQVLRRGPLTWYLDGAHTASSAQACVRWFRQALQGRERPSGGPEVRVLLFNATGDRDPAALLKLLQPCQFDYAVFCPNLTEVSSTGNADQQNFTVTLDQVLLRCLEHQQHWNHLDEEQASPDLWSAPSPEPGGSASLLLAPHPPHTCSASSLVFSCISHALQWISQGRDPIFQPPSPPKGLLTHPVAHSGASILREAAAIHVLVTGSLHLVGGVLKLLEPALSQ
UniProt O14926: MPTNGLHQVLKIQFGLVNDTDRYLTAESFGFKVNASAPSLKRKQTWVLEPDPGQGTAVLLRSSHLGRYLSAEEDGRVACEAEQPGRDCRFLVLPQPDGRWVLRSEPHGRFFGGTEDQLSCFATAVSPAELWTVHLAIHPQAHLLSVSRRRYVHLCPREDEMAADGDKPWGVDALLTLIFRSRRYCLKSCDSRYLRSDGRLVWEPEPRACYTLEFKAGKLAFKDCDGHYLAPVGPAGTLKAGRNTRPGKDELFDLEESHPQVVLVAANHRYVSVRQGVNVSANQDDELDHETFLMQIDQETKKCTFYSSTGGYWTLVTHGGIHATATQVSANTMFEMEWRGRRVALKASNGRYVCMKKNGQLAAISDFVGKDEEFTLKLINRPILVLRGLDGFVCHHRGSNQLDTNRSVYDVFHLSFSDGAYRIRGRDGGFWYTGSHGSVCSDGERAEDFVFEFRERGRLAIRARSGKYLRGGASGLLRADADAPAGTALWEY
UniProt Q96QD9: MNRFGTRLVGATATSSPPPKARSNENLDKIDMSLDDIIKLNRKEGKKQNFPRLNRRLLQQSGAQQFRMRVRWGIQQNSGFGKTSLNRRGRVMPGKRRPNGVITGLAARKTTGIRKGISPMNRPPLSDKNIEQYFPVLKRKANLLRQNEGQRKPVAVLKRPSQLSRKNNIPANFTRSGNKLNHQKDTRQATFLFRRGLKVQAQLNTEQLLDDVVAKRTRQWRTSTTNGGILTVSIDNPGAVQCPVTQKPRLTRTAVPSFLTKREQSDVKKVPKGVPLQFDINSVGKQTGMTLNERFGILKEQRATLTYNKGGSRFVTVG
UniProt Q9UM11, whole entry, looked up: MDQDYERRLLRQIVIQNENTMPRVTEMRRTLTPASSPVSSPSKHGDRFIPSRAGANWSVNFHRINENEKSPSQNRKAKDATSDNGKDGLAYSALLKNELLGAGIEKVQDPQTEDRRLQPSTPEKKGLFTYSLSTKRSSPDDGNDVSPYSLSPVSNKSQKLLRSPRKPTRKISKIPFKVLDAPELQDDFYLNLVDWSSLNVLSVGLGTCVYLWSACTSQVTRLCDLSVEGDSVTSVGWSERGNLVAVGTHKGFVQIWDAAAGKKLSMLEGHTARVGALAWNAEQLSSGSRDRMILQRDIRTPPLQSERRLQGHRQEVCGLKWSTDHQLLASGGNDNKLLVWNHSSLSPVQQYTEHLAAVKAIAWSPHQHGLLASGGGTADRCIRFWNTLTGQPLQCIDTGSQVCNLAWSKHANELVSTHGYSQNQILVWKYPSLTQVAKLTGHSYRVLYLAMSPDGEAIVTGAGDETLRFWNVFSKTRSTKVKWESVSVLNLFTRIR
UniProt Q13467, whole entry, looked up: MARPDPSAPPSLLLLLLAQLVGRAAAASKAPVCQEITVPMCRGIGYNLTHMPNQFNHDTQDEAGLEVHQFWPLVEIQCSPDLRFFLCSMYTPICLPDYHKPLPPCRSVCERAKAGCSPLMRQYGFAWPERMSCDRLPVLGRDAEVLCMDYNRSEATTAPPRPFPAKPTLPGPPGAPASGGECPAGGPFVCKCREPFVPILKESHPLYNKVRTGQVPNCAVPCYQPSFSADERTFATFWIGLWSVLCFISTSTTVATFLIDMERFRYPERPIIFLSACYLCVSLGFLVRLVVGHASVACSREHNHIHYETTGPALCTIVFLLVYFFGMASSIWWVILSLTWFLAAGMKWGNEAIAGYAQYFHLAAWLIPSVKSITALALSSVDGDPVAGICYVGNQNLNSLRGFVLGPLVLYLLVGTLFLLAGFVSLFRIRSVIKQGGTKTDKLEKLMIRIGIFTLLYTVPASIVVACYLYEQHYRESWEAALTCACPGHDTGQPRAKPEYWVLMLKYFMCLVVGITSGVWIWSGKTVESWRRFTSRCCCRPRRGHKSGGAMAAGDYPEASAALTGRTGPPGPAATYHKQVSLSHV
UniProt Q9BYC5: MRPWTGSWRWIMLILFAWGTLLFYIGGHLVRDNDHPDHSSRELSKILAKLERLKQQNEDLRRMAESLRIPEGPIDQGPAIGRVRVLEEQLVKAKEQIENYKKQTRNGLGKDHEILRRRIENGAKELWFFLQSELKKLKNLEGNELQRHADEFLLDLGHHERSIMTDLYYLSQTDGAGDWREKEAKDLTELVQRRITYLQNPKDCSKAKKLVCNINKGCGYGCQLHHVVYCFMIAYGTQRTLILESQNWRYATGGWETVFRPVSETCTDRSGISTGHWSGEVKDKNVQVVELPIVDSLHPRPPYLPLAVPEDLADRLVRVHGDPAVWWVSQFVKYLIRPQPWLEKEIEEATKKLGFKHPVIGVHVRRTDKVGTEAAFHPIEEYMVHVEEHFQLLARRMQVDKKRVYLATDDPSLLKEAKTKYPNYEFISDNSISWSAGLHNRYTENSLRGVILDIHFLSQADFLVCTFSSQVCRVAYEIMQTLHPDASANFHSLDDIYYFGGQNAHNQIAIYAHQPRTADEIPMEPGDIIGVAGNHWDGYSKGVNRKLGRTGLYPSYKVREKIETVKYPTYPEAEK
FOXO3B, A0A2Z4LIS9, UniProt A0A2Z4LIS9, whole entry, looked up: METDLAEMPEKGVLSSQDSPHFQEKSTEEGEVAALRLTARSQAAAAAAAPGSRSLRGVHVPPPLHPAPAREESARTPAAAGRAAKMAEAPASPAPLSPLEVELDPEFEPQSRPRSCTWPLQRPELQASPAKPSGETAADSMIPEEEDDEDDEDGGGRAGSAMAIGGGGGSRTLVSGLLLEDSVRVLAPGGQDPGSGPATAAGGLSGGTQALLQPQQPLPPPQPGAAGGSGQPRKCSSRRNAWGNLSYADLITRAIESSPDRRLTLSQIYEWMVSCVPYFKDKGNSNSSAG
UniProt O94915: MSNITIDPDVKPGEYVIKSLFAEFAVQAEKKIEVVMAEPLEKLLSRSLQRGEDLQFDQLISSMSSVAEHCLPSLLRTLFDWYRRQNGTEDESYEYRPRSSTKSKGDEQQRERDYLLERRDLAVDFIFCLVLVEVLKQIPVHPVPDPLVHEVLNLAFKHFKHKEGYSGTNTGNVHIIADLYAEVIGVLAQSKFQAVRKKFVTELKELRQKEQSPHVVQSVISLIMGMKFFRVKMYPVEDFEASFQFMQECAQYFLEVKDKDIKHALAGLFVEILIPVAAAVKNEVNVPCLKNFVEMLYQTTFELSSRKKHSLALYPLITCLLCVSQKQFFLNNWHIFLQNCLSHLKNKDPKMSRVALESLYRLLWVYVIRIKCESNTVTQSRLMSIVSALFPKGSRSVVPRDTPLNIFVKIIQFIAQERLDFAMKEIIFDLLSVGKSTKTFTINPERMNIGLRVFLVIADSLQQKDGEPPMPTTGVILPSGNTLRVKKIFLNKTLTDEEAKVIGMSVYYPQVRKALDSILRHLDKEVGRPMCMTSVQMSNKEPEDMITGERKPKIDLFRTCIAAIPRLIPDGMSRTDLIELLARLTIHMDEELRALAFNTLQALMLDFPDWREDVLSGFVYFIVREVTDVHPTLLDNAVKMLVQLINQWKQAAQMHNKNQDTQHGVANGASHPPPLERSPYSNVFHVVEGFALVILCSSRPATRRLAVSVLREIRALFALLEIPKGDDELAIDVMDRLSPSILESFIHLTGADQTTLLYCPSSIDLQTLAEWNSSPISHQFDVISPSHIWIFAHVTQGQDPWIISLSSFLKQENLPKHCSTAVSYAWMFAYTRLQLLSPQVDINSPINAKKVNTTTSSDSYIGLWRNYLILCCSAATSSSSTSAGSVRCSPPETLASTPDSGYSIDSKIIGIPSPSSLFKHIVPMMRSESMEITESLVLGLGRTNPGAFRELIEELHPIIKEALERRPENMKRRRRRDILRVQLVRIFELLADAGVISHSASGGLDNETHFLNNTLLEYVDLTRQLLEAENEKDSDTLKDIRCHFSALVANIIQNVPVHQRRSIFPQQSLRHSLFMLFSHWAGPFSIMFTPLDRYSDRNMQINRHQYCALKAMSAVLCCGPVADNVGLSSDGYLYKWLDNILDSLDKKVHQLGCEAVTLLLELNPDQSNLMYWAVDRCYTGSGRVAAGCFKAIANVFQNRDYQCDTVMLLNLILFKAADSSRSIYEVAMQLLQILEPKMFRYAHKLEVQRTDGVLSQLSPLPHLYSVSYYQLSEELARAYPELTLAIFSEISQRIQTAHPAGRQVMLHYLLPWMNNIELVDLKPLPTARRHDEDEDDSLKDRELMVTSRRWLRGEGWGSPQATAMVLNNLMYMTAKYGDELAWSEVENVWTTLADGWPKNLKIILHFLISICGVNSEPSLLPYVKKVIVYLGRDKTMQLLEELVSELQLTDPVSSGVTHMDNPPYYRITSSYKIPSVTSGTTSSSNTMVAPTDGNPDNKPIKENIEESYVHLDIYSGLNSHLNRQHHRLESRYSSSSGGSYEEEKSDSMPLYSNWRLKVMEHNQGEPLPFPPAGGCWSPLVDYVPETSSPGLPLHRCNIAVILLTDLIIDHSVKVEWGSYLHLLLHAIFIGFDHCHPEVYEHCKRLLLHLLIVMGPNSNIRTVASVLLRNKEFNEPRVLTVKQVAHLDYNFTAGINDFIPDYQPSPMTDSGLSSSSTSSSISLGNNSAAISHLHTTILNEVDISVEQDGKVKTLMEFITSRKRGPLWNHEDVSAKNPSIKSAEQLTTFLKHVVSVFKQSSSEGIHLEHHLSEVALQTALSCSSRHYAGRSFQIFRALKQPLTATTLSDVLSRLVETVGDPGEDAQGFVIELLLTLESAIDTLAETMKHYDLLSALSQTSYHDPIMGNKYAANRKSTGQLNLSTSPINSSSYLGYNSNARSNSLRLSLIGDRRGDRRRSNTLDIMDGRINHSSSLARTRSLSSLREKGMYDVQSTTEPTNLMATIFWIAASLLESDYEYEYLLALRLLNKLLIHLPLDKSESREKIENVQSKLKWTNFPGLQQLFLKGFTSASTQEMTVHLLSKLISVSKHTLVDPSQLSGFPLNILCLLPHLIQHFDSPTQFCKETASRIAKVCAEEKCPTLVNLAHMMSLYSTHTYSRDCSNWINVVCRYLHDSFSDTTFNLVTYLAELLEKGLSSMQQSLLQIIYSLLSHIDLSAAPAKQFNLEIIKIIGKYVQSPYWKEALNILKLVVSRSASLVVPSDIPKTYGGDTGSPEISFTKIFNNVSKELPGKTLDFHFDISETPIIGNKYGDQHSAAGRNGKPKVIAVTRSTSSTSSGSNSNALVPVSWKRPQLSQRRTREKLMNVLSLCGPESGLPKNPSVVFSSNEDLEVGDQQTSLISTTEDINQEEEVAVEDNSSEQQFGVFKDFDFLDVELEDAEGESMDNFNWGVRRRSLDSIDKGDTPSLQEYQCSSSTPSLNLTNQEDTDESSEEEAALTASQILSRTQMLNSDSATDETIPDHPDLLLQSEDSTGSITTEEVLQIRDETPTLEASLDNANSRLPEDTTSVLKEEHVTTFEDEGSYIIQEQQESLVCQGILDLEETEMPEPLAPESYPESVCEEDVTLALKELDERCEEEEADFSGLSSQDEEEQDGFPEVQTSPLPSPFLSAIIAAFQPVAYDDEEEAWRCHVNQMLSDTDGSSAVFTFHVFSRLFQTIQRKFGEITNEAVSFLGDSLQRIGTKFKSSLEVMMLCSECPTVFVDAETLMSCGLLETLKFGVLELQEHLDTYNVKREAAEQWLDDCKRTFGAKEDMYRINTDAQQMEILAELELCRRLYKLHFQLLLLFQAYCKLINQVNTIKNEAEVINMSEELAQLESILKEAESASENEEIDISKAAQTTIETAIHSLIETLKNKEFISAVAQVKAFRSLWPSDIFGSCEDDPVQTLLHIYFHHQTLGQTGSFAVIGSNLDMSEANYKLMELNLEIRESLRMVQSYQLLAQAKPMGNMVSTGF

[1] = compound: CNc1nc(-c2ccc3c(N)n[nH]c3c2)cc(N2C[C@@H](C(=O)NC3CCCCC3)CC[C@H]2C)n1
Procedure, shortened: as §1

encorafenib = compound: COC(=O)N[C@@H](C)CNc1nccc(-c2cn(C(C)C)nc2-c2cc(Cl)cc(NS(C)(=O)=O)c2F)n1 [encorafenib]
Procedure, shortened: as §1

[2] = compound: COC(=O)[C@H](CCSC)NC(=O)C1=C(C=C(C=C1)NC[C@H](CS)N)C2=CC=CC=C2
Procedure, shortened: as §1

alisertib = compound: COc1cc(Nc2ncc3c(n2)-c2ccc(Cl)cc2C(c2c(F)cccc2OC)=NC3)ccc1C(=O)O [alisertib]
Procedure, shortened: as §1

gefitinib = compound: COc1cc2ncnc(Nc3ccc(F)c(Cl)c3)c2cc1OCCCN1CCOCC1 [gefitinib]
Procedure, shortened: as §1

duvelisib = compound: C[C@H](Nc1ncnc2nc[nH]c12)c1cc2cccc(Cl)c2c(=O)n1-c1ccccc1 [duvelisib]
Procedure, shortened: as §1

tozasertib = compound: Cc1cc(Nc2cc(N3CCN(C)CC3)nc(Sc3ccc(NC(=O)C4CC4)cc3)n2)n[nH]1 [tozasertib]
Procedure, shortened: as §1

defactinib = compound: CNC(=O)c1ccc(Nc2ncc(C(F)(F)F)c(NCc3nccnc3N(C)S(C)(=O)=O)n2)cc1 [defactinib]
Procedure, shortened: as §1

crizotinib = compound: C[C@@H](Oc1cc(-c2cnn(C3CCNCC3)c2)cnc1N)c1c(Cl)ccc(F)c1Cl [crizotinib]
Procedure, shortened: as §1

doramapimod = compound: Cc1ccc(-n2nc(C(C)(C)C)cc2NC(=O)Nc2ccc(OCCN3CCOCC3)c3ccccc23)cc1 [doramapimod]
Procedure, shortened: as §1

[3] = compound: CNC(=O)C1=CC=CC=C1NC2=NC(=NC=C2Cl)NC3=C(C=C(C=C3)N4CCOCC4)OC
Procedure, shortened: as §1

[4] = compound: COc1cc2nc(-c3cc(F)ccc3O)nc(N[C@@H]3CNC[C@H]3C(C)(C)O)c2cc1OC
Procedure, shortened: as §1

lapatinib = compound: CS(=O)(=O)CCNCc1ccc(-c2ccc3ncnc(Nc4ccc(OCc5cccc(F)c5)c(Cl)c4)c3c2)o1 [lapatinib]
Procedure, shortened: as §1

pictilisib = compound: CS(=O)(=O)N1CCN(Cc2cc3nc(-c4cccc5[nH]ncc45)nc(N4CCOCC4)c3s2)CC1 [pictilisib]
Procedure, shortened: as §1

bafetinib = compound: Cc1ccc(NC(=O)c2ccc(CN3CC[C@H](N(C)C)C3)c(C(F)(F)F)c2)cc1Nc1nccc(-c2cncnc2)n1 [bafetinib]
Procedure, shortened: as §1

alvocidib = compound: CN1CC[C@H](c2c(O)cc(O)c3c(=O)cc(-c4ccccc4Cl)oc23)[C@H](O)C1 [alvocidib]
Procedure, shortened: as §1

[5] = compound: C[C@H](C1=CC=C(C=C1)C(=O)NC2=C3C=CNC3=NC=C2)N
Procedure, shortened: as §1

gandotinib = compound: Cc1cc(Nc2cc(CN3CCOCC3)c3nc(C)c(Cc4ccc(Cl)cc4F)n3n2)n[nH]1 [gandotinib]
Procedure, shortened: as §1

[6] = compound: Cc1cccc(CC(=O)N2CCc3c2ccc(-c2cn(C)c4ncnc(N)c24)c3F)n1
Procedure, shortened: as §1

FPGS (UniProt Q05932)
log2 fold change (Tubastatin A): inactive: 0.006
log2 fold change [1]: inactive: 0.088
log2 fold change (encorafenib): inactive: -0.204
log2 fold change [2]: inactive: -0.057
log2 fold change (alisertib): inactive: 0.035
log2 fold change (gefitinib): inactive: -0.015
log2 fold change (duvelisib): inactive: -0.319
log2 fold change (tozasertib): inactive: -0.018

GEN1 (UniProt Q17RS7)
log2 fold change (Tubastatin A): inactive: -0.017
log2 fold change (defactinib): inactive: -0.215
log2 fold change [1]: inactive: -0.148
log2 fold change (encorafenib): inactive: 0
log2 fold change [2]: inactive: 0.163
log2 fold change (alisertib): inactive: 0.202
log2 fold change (gefitinib): inactive: 0.141
log2 fold change (crizotinib): inactive: 0.182
log2 fold change (duvelisib): inactive: 0.175
log2 fold change (tozasertib): inactive: 0.053
log2 fold change (doramapimod): inactive: 0.139

GDPD5 (UniProt Q8WTR4)
log2 fold change (defactinib): inactive: 0.039
log2 fold change (crizotinib): inactive: 0.002
log2 fold change (doramapimod): inactive: -0.02

GFOD1 (UniProt Q9NXC2)
log2 fold change (Tubastatin A): inactive: -0.049
log2 fold change [3]: inactive: -0.125
log2 fold change [4]: inactive: 0.137
log2 fold change (lapatinib): inactive: 0.186

GAPVD1 (UniProt Q14C86)
log2 fold change [4]: inactive: 0.071
log2 fold change (lapatinib): inactive: 0.03
log2 fold change (pictilisib): inactive: -0.138
log2 fold change (bafetinib): inactive: 0.014

FSCN2 isoform 2 (UniProt O14926)
log2 fold change (defactinib): inactive: -0.131
log2 fold change (encorafenib): inactive: -0.022
log2 fold change [2]: inactive: -0.14
log2 fold change (crizotinib): inactive: 0.095
log2 fold change (tozasertib): inactive: 0.128
log2 fold change (doramapimod): inactive: -0.031

FYTTD1 (UniProt Q96QD9)
log2 fold change [3]: inactive: 0.017
log2 fold change (defactinib): inactive: -0.092
log2 fold change [1]: inactive: 0.046
log2 fold change (encorafenib): inactive: 0.055
log2 fold change [2]: inactive: 0.055
log2 fold change (pictilisib): inactive: -0.086
log2 fold change (crizotinib): inactive: -0.037
log2 fold change (duvelisib): inactive: 0.01
log2 fold change (tozasertib): inactive: -0.055
log2 fold change (doramapimod): inactive: -0.064
log2 fold change (bafetinib): inactive: 0.003

FOXO4 (UniProt P98177)
log2 fold change (alvocidib): inactive: -0.001
log2 fold change (pictilisib): inactive: -0.07
log2 fold change [5]: inactive: 0.061
log2 fold change (gandotinib): inactive: -0.105
log2 fold change (bafetinib): inactive: 0.054
log2 fold change [6]: inactive: -0.07

FRAS1 isoform 2 (UniProt Q86XX4)
log2 fold change (defactinib): inactive: -0.051
log2 fold change [1]: inactive: 0.083
log2 fold change (crizotinib): inactive: -0.247
log2 fold change (duvelisib): inactive: 0.032
log2 fold change (doramapimod): inactive: 0.204

GAB3 isoform 2 (UniProt Q8WWW8)
log2 fold change (Tubastatin A): inactive: -0.007
log2 fold change [1]: inactive: -0.091
log2 fold change (encorafenib): inactive: 0.123
log2 fold change [2]: inactive: 0.083
log2 fold change (crizotinib): inactive: -0.054
log2 fold change (duvelisib): inactive: -0.037
log2 fold change (tozasertib): inactive: -0.032
log2 fold change (doramapimod): inactive: 0.162

FZR1 isoform 2 (UniProt Q9UM11)
log2 fold change (alvocidib): inactive: -0.168
log2 fold change (pictilisib): inactive: -0.204
log2 fold change [5]: inactive: -0.021
log2 fold change (gandotinib): inactive: -0.048
log2 fold change (bafetinib): inactive: -0.019
log2 fold change [6]: inactive: 0.034

FZD5 (UniProt Q13467)
log2 fold change (alvocidib): inactive: -0.423
log2 fold change [1]: inactive: -0.038
log2 fold change [4]: inactive: -0.032
log2 fold change (lapatinib): inactive: 0.045
log2 fold change (pictilisib): inactive: -0.062
log2 fold change [5]: inactive: -0.156
log2 fold change (duvelisib): inactive: -0.105
log2 fold change (gandotinib): inactive: 0.259
log2 fold change (bafetinib): inactive: -0.107
log2 fold change [6]: inactive: 0.216

FUS (UniProt H3BPE7)
log2 fold change [1]: inactive: 0.452
log2 fold change (duvelisib): inactive: -0.23

FOXL2 (UniProt P58012)
log2 fold change (Tubastatin A): inactive: -0.049
log2 fold change [3]: inactive: 0.031
log2 fold change [1]: inactive: 0.005
log2 fold change (encorafenib): inactive: 0.079
log2 fold change [2]: inactive: 0.138
log2 fold change [4]: inactive: 0.015
log2 fold change (lapatinib): inactive: -0.25
log2 fold change (pictilisib): inactive: 0.091
log2 fold change (duvelisib): inactive: 0.094
log2 fold change (tozasertib): inactive: -0.092
log2 fold change (bafetinib): active: -0.703

FOXRED2 (UniProt Q8IWF2)
log2 fold change (Tubastatin A): inactive: 0.21
log2 fold change [3]: inactive: 0.159
log2 fold change (defactinib): inactive: 0.033
log2 fold change [1]: inactive: 0.133
log2 fold change (encorafenib): inactive: -0.173
log2 fold change [2]: inactive: -0.08
log2 fold change (alisertib): inactive: 0.024
log2 fold change (gefitinib): inactive: -0.091
log2 fold change (crizotinib): inactive: 0.074
log2 fold change (duvelisib): inactive: -0.126
log2 fold change (tozasertib): inactive: -0.044
log2 fold change (doramapimod): inactive: 0.019

FUT1 (UniProt P19526)
log2 fold change (alvocidib): inactive: 0.003
log2 fold change (crizotinib): inactive: -0.003
log2 fold change [5]: inactive: -0.029
log2 fold change (gandotinib): inactive: -0.132
log2 fold change (doramapimod): inactive: -0.09
log2 fold change [6]: inactive: -0.085

FUT8 (UniProt Q9BYC5)
log2 fold change (Tubastatin A): inactive: 0.299
log2 fold change [3]: inactive: 0.131
log2 fold change (encorafenib): inactive: -0.076
log2 fold change [2]: inactive: -0.015
log2 fold change [4]: inactive: -0.123
log2 fold change (lapatinib): inactive: 0.204
log2 fold change (pictilisib): inactive: -0.054
log2 fold change (tozasertib): inactive: 0.148
log2 fold change (bafetinib): inactive: 0

FTSJ1 isoform 2 (UniProt Q9UET6)
log2 fold change (alvocidib): inactive: 0.015
log2 fold change (defactinib): inactive: 0.028
log2 fold change (encorafenib): inactive: -0.027
log2 fold change [2]: inactive: 0.047
log2 fold change [4]: inactive: -0.016
log2 fold change (lapatinib): inactive: 0.013
log2 fold change [5]: inactive: -0.129
log2 fold change (gandotinib): inactive: 0.077
log2 fold change (tozasertib): inactive: -0.175
log2 fold change [6]: inactive: 0.079

GALNT3 (UniProt Q14435)
log2 fold change (encorafenib): inactive: 0.065
log2 fold change [2]: inactive: -0.002
log2 fold change (pictilisib): inactive: -0.026
log2 fold change (crizotinib): inactive: -0.039
log2 fold change (tozasertib): inactive: -0.032
log2 fold change (doramapimod): inactive: -0.182
log2 fold change (bafetinib): inactive: -0.167

GALNT4 (UniProt Q8N4A0)
log2 fold change (alvocidib): inactive: -0.02
log2 fold change (defactinib): inactive: 0.001
log2 fold change [1]: inactive: -0.106
log2 fold change (encorafenib): inactive: -0.022
log2 fold change [2]: inactive: -0.104
log2 fold change [4]: inactive: 0.059
log2 fold change (lapatinib): inactive: -0.025
log2 fold change (pictilisib): inactive: 0.065
log2 fold change (crizotinib): inactive: -0.225
log2 fold change [5]: inactive: -0.05
log2 fold change (duvelisib): inactive: 0.013
log2 fold change (gandotinib): inactive: 0.018
log2 fold change (tozasertib): inactive: 0.096
log2 fold change (doramapimod): inactive: -0.094
log2 fold change (bafetinib): inactive: -0.001
log2 fold change [6]: inactive: 0.033

FOXO3B, A0A2Z4LIS9
log2 fold change (defactinib): inactive: -0.006
log2 fold change [1]: inactive: 0.07
log2 fold change (duvelisib): inactive: 0.036

GAGE1 (UniProt Q13065)
log2 fold change (Tubastatin A): inactive: -0.066
log2 fold change (encorafenib): inactive: 0.282
log2 fold change [2]: inactive: -0.194
log2 fold change [4]: inactive: -0.013
log2 fold change (lapatinib): inactive: 0.012
log2 fold change (pictilisib): inactive: -0.05
log2 fold change (tozasertib): inactive: -0.079
log2 fold change (bafetinib): inactive: 0.037

GANC (UniProt Q8TET4)
log2 fold change (Tubastatin A): inactive: 0.012
log2 fold change [3]: inactive: -0.003
log2 fold change [1]: inactive: 0.014
log2 fold change (encorafenib): inactive: -0.03
log2 fold change [2]: inactive: -0.235
log2 fold change [4]: inactive: 0.061
log2 fold change (lapatinib): inactive: -0.112
log2 fold change (crizotinib): inactive: 0.047
log2 fold change (duvelisib): inactive: 0.033
log2 fold change (tozasertib): inactive: -0.204
log2 fold change (doramapimod): inactive: -0.097

FRAT1 (UniProt Q92837)
log2 fold change (defactinib): inactive: -0.204
log2 fold change [1]: inactive: 0.287
log2 fold change (encorafenib): inactive: 0.042
log2 fold change [2]: inactive: -0.128
log2 fold change (duvelisib): inactive: -0.006
log2 fold change (tozasertib): inactive: -0.115

FRYL isoform 2 (UniProt O94915)
log2 fold change (alvocidib): inactive: -0.038
log2 fold change [5]: inactive: -0.204
log2 fold change (gandotinib): inactive: 0.143
log2 fold change [6]: inactive: 0.193

GFI1B (UniProt Q5VTD9)
log2 fold change (Tubastatin A): inactive: -0.279
log2 fold change [3]: inactive: 0.081
log2 fold change [1]: inactive: 0.021
log2 fold change (alisertib): inactive: 0.287
log2 fold change [4]: inactive: 0.018
log2 fold change (gefitinib): inactive: -0.001
log2 fold change (lapatinib): inactive: 0.033
log2 fold change (crizotinib): inactive: 0.017
log2 fold change (duvelisib): inactive: 0.006
log2 fold change (doramapimod): inactive: 0.009

FUT4 (UniProt P22083)
log2 fold change (alvocidib): inactive: -0.071
log2 fold change [1]: inactive: -0.014
log2 fold change (encorafenib): inactive: 0.009
log2 fold change [2]: inactive: -0.016
log2 fold change (alisertib): inactive: -0.028
log2 fold change (gefitinib): inactive: -0.065
log2 fold change (crizotinib): inactive: 0.017
log2 fold change [5]: inactive: -0.069
log2 fold change (duvelisib): inactive: 0.006
log2 fold change (gandotinib): inactive: 0.124
log2 fold change (tozasertib): inactive: 0.128
log2 fold change (doramapimod): inactive: 0.026
log2 fold change [6]: inactive: 0.123

From the supplement of paper PMC10849652
